# Test results published in PubChem BioAssay AID2685 (National Center for Advancing Translational Sciences (NCATS), 2010).
# This is one part of the list. Further columns of the screen follow, without active or inactive calls. Compounds called inactive in the main read-out are mostly missing here. The note in brackets gives the kind of curve behind each potency; many fits are weak.
# Experiment: qHTS Assay for Lipid Storage Modulators in Drosophila S3 Cells;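 on cell number change: cells counted by Cell Tracker Red CMTPX staining in the red channel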
# Settings: BODIPY lipid droplet fluorescence, 18-24 h; for cell number change: measured here: cell count max response, cells fed with added oleic acid
# Outline: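 Laser-scanning cytometry quantifies lipid droplet accumulation (500–530 nm total intensity; droplet/cell object ratio) in oleic acid-fed (400 uM added) Drosophila S3 cells treated with a concentration series. 20 uM Triacsin C defined 100% inhibition.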
# [1] = measured here: cell number channel AC50, cells fed with added oleic acid
# [2] = measured here: lipid fluorescence (Fed channel) AC50, cells fed with added oleic acid
Structure (SMILES),cell number change [%],AC50 [1],AC50 [2]
COc1ccc(CN2CC(C(=O)NCCCOC(C)C)CC2=O)cc1 (stereo not drawn),-51.3,"0.731 µM [falling, full curve]","10.3 µM [falling, single point]"
COc1ccc(C(CC(=O)O)N2Cc3ccccc3C2=O)cc1OC (stereo not drawn),-33.8,"18.4 µM [falling, single point]","1.16 µM [falling, full curve]"
Clc1ccccc1-c1ccc2ncnc(NCc3cccnc3)c2c1,13.6,–,–
CCOc1cc(C=C(C(=O)OC)C(=O)OC)ccc1OCc1ccc([N+](=O)[O-])cc1,52,"29.1 µM [rising, single point]","5.8 µM [falling, single point]"
Cc1cccc(NC(=O)C(C)N2C(=O)C3C4CC(C(Br)C4Br)C3C2=O)c1 (stereo not drawn),-76.9,"4.11 µM [falling, full curve]","0.366 µM [falling, full curve]"
Cc1nccc2[nH]c(=O)c(C(=O)NCCCN(C)C3CCCCC3)cc12,-8.65,–,"0.231 µM [falling, full curve, poor fit]"
Cc1csc(NC(=O)CCC(=O)N(CC(=O)NC2CCCCC2)c2ccccc2)n1,11.7,–,"29.1 µM [rising, single point]"
O=C(OCc1ccc(Br)cc1)c1cccnc1,-7.72,–,"2.06 µM [falling, full curve, poor fit]"
O=C1C=C(Nc2ccccc2)c2ccccc2C1=O,-32.9,"18.4 µM [falling, single point]","18.4 µM [falling, single point]"
O=C(Cc1c(F)cccc1Cl)NCc1cccnc1,1.17,–,"29.1 µM [falling, single point]"
O=C(CN1C(=O)CCC1=O)Nc1nc(-c2cccs2)cs1,-3.6,–,"0.731 µM [falling, full curve]"
Cc1cc(C)n2c(SCc3ccc(Cl)cc3Cl)nnc2n1,-60.4,"23.1 µM [falling, single point]","23.1 µM [falling, single point]"
Cc1cccn2c(=O)nc(SCC(=O)NCc3ccc(F)cc3)nc12,40.7,"9.2 µM [rising, partial curve, poor fit]",–
CC(=O)Nc1ccc(S(=O)(=O)N(Cc2ccco2)Cc2cc3ccccc3[nH]c2=O)cc1,-21.8,–,"13 µM [falling, single point]"
Cc1ccc(NC(=O)NCC2CCN(Cc3cc(C)ccc3Cl)CC2)c(C)c1,27,–,–
C=CCNC(=S)Nc1ccc(C)c(S(=O)(=O)N2CCCCC2)c1,-21.3,–,"0.00411 µM [rising, full curve, poor fit]"
c1cn(C23CC4CC(CC(C4)C2)C3)cn1,–,–,"0.651 µM [falling, single point]"
C=CCOc1c(Cl)cc(/C=N/O)cc1OC,-8.23,–,–
Cc1ccc2ccc3ccc(C)nc3c2n1,-15.3,–,"1.84 µM [falling, partial curve, poor fit]"
Cc1onc(-c2c(Cl)cccc2Cl)c1C(=O)NNc1ccccc1,-31.1,"18.4 µM [falling, single point]","29.1 µM [falling, single point]"

# Part of the list above, bar-delimited.
Structure (SMILES) | cell number change [%] | AC50 [1] | AC50 [2]
Cc1cccn2c(=O)nc(SCC(=O)NCc3ccc(F)cc3)nc12 | 40.7 | 9.2 µM [rising, partial curve, poor fit] | –
C=CCNC(=S)Nc1ccc(C)c(S(=O)(=O)N2CCCCC2)c1 | -21.3 | – | 0.00411 µM [rising, full curve, poor fit]

# Next part:

Structure (SMILES),cell number change [%],AC50 [1],AC50 [2]
COc1ccc(NC(=O)c2ccc(=O)[nH]c2)cc1S(=O)(=O)N1CCOCC1,-4.27,–,–
O=C(Nc1ccncc1)c1ccc(C(=O)Nc2ccncc2)cc1,22.5,–,–
COc1ccc(C(C)(C)C)cc1NC(=O)C1C2C=CC(C2)C1C(=O)O (stereo not drawn),-24.5,"4.11 µM [falling, full curve, poor fit]",–
COc1ccccc1NC(=O)C(=O)N/N=C/c1ccc([N+](=O)[O-])s1,24.3,–,"18.4 µM [rising, partial curve, poor fit]"
Cc1ccc(C(=O)COC(=O)c2cc(C)no2)c(C)c1,14,–,–
O=C(N1CCOCC1)N1CCN(C(=O)N(c2ccccc2)c2ccccc2)CC1,-1.61,–,"29.1 µM [falling, single point]"
O=C(Cc1cccs1)Nc1ccc(-c2nnn(CC(=O)N3CCOCC3)n2)cc1,-11.5,–,"18.4 µM [rising, single point]"
CN1CCc2c(sc(N)c2C(=O)O)C1,16,–,–
CCOc1ccccc1N1CCN(C(=O)c2ccc(Cl)c(S(=O)(=O)N3CCCCC3)c2)CC1,-41.3,"0.82 µM [falling, full curve, poor fit]",–
Cc1cc(SCCC(=O)O)nc2c(C)cccc12,–,"1.84 µM [falling, partial curve]",–
COC(=O)CSC1=C(C#N)C(c2cccc(OC)c2)CC(=O)N1 (stereo not drawn),-25.4,–,"32.6 µM [falling, single point]"
CC1CCN(C(=O)c2cc(-c3ccco3)on2)CC1,12.9,–,"1.16 µM [falling, single point]"
Cc1ccc(CN2CCC(Oc3ccc(C(=O)NCc4ccccn4)cc3)CC2)o1,-8.29,–,"16.4 µM [falling, single point]"
O=C(O)CCC(=O)Nc1ccc(F)cc1,-27.6,"3.26 µM [falling, full curve, poor fit]","29.1 µM [falling, single point]"
O=C(COc1ccc(F)cc1)NCCCn1ccnc1,–,–,"3.26 µM [falling, partial curve]"
CC(C)(C)OC(=O)N/N=C\C=C\c1ccc2c(c1)OCO2,5.93,–,"1.46 µM [rising, full curve]"
COc1cccc(-c2sc3ccc(OC)cc3c2C#CCCO)c1,-29.7,–,"23.1 µM [falling, single point]"
COCCOC(=O)C1=C(C)NC(=O)NC1c1cn(-c2ccccc2)nc1-c1cccs1 (stereo not drawn),35.2,"29.1 µM [rising, single point]",–
COCCn1nnnc1C(c1cc2cc(C)cc(C)c2[nH]c1=O)N1CCN(c2ccccc2F)CC1 (stereo not drawn),–,"2.59 µM [rising, partial curve]",–
COc1ccc(-c2cc(C(=O)NCc3ccccc3)no2)cc1OC,-45.8,"13 µM [falling, partial curve]","25.9 µM [falling, partial curve]"
